Results are given in words; binding and its absence hold for the method and conditions named. Binding seen in cells or lysates may run through a third protein. Some entries that bind do so weakly or less than the wild type.
How the values were obtained:
[1] = target: T1, syndecan-1 (human (endogenous in PC3 and LNCaP)) (UniProt P18827); assay: co-IP; PC3 cells, endogenous proteins; cells cross-linked with 2 mM DSP 1 h at 4 °C, lysed in Pierce IP Lysis Buffer; 500 µg lysate protein with 2-4 µg primary or IgG isotype control antibody overnight at 4 °C, Protein G MicroBeads; prey detected by Western blotting
T1 sequence: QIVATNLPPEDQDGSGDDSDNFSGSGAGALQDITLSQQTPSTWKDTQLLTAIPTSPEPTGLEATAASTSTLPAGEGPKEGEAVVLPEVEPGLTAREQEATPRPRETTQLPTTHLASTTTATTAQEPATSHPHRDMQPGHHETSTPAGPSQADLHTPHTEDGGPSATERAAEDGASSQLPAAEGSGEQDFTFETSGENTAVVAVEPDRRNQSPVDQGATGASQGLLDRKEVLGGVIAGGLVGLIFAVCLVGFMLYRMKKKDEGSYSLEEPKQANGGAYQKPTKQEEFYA

Sequences of proteins named here, by UniProt entry; tags and fusion partners are left off. Residues count along the entry.
UniProt Q99523, residues 78-831: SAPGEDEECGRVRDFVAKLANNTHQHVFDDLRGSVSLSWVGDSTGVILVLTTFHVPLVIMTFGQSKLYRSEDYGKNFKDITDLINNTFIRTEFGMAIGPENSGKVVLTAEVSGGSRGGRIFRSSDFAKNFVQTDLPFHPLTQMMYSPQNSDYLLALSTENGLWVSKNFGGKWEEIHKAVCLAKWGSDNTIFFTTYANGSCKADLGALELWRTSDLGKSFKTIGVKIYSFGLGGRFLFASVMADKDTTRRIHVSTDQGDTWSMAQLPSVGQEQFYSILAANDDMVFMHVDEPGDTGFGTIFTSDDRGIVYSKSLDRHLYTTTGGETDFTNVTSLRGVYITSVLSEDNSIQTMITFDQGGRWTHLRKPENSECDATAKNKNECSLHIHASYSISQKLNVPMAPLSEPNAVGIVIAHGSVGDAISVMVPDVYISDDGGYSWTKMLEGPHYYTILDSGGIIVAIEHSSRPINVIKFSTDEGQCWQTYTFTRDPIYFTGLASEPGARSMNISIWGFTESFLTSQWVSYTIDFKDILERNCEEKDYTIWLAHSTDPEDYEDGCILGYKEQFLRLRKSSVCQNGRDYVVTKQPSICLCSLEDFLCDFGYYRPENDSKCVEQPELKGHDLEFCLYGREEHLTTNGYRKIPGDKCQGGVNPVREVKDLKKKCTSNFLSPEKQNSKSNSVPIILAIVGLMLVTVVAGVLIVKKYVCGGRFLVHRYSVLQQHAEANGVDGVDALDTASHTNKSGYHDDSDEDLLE

[2] = target: sortilin (human (endogenous in PC3 and LNCaP)) (UniProt Q99523); assay: as above
[3] = target: T1, syndecan-1 (human (endogenous in PC3 and LNCaP)); assay: co-IP; LNCaP cells, endogenous proteins; cells cross-linked with 2 mM DSP 1 h at 4 °C, lysed in Pierce IP Lysis Buffer; 500 µg lysate protein with 2-4 µg primary or IgG isotype control antibody overnight at 4 °C, Protein G MicroBeads; prey detected by Western blotting
[4] = target: sortilin (human (endogenous in PC3 and LNCaP)) (UniProt Q99523); assay: as above

Measured: binding

B1: lipoprotein lipase (enzyme, UniProt P06858 28-475)
chain: ADQRRDFIDIESKFALRTPEDTAEDTCHLIPGVAESVATCHFNHSSKTFMVIHGWTVTGMYESWVPKLVAALYKREPDSNVIVVDWLSRAQEHYPVSAGYTKLVGQDVARFINWMEEEFNYPLDNVHLLGYSLGAHAAGIAGSLTNKKVNRITGLDPAGPNFEYAEAPSRLSPDDADFVDVLHTFTRGSPGRSIGIQKPVGHVDIYPNGGTFQPGCNIGEAIRVIAERGLGDVDQLVKCSHERSIHLFIDSLLNEENPSKAYRCSSKEAFEKGLCLSCRKNRCNNLGYEINKVRAKRSSKMYLKTRSQMPYKVFHYQVKIHFSGTESETHTNQAFEISLYGTVAESENIPFTLPEVSTNKTYSFLIYTEVDIGELLMLKLKWKSDSYFSWSDWWSSPGFAIQKIRVKAGETQKKVIFCSREKVSHLQKGKAPAVFVKCHDKSLNKKSG
binds: all assays above
